From PubChem BioAssay AID504834 (National Center for Advancing Translational Sciences (NCATS), 2011)
In all, about 320,000 compounds went through this assay and about 22,000 (6.9%) were called active. Inconclusive results, whose numbers are uncertain, are shown with a selection of clear calls. Calls follow the shape of the dose curve; as a rule, active = well fitted inhibition curve with a large enough effect; inconclusive = small, poorly fitted or top-dose-only effect, or another doubt; inactive = no such curve, though single readings can be large or run the other way. A potency beside an inconclusive call is a rough fit, not a confirmed value.

Experiment: Primary qHTS for delayed death inhibitors of the malarial parasite plastid, 96 hour incubation
Conditions: P. falciparum luciferase reporter growth; series mostly up to 28.7 µM
Outline: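 Readout is luminescence from an integrated firefly luciferase in P. falciparum. Red cells, 2% hematocrit and 0.05% parasitemia final, were cultured with compound through two parasite generations (96 hours) at 37 C, 5% CO2.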
Potency is read from the fitted curve at half-maximal effect.

Compound | Potency
CC[C@@]12C(=O)N(c3ccc(OC)cc3)C(=O)N1[C@H](c1ccc(Cl)cc1)[C@@H]1C(=O)N(C3CCCCC3)C(=O)[C@@H]12 | inconclusive: 2.08 µM [inhibitor, partial curve, poor fit]
COC(=O)c1cc(C(=O)OC)n(Cc2ccc(F)cc2)c1C | inconclusive: 14.7 µM [inhibitor, partial curve, poor fit]
CC(=O)c1ccc(NC(=O)C2=CC(c3cccs3)=NS(=O)(=O)N2C)cc1 | inconclusive: 11.7 µM [inhibitor, single point]
O=c1c2ccccc2nc(/C=C/c2ccc(O)cc2)n1CCc1ccccc1 | inconclusive: 18.5 µM [inhibitor, single point]
COc1ccc(N2C(=S)NC3CS(=O)(=O)CC32)cc1 (stereo unspecified) | inactive
Cc1cccc(/C=N/Nc2cc(N3CCOCC3)nc(N3CCOCC3)n2)c1 | inconclusive: 18.5 µM [inhibitor, single point]
O=C(/C=C/c1ccc2c(c1)OCO2)Nc1nc(-c2ccc(F)cc2)cs1 | inconclusive: 18.5 µM [inhibitor, partial curve, poor fit]
c1ccc(-c2nnnn2-c2ccccc2)cc1 | inactive
COc1ccccc1NC(=O)c1ccc(NC(=O)COC(=O)c2ccc(O)cc2)cc1 | inactive
CC(=O)c1c(Nc2cccc(F)c2)oc(C)cc1=O | inactive
CCc1[nH]nc(C(=O)N2CCCC(Nc3cccc(F)c3)C2)c1C (stereo unspecified) | inactive
COc1ccc2[nH]cc(CCNCc3cccnc3)c2c1 | inconclusive: 18.5 µM [inhibitor, single point]
O=[N+]([O-])c1ccc2[nH]c(O)c(N=NC(=S)Nc3cccnc3)c2c1 | inconclusive: 11.7 µM [inhibitor, single point]
CCOC(=O)/C(=N/Nc1ccc(OC)cc1)N1CCCc2ccccc21 | inconclusive: 11.7 µM [inhibitor, single point]
CCOc1ccc(S(=O)(=O)N2CCC(C(=O)Nc3cccc(NC(C)=O)c3)CC2)cc1 | inactive
CC1=NN(C(=O)c2ccc(Br)cc2)C(O)(C(F)(F)OC(F)(F)F)C1 (stereo unspecified) | inconclusive: 2.08 µM [inhibitor, partial curve, poor fit]
CCCn1nnnc1NCc1ccccc1C | inactive
Cc1ccc(NC(=O)c2cnccn2)cc1C | inactive
COc1ccc(Cn2c(N)c(C#N)c3nc4ccccc4nc32)cc1 | inconclusive: 2.94 µM [inhibitor, full curve]
Cc1ccc2cc(CCNC(=O)CCCc3ccccc3)c(=O)[nH]c2c1 | inconclusive: 18.5 µM [inhibitor, single point]
COc1cccc2c1[C@@H]1CN(CCCCn3c(=O)[nH]c4c(sc5ncc(-c6ccccc6)nc54)c3=O)C[C@@H]1CO2 | inconclusive: 14.7 µM [inhibitor, single point]
Nc1ccn(C2CC(O)C(CO)O2)c(=O)n1 (stereo unspecified) | inactive
O=C(CCNC(=O)c1ccc(Cl)cc1)NCC(c1ccco1)N1CCCC1 (stereo unspecified) | inconclusive: 3.29 µM [inhibitor, partial curve, poor fit]
O=C(CC1Oc2ccc(Cl)cc2NC1=O)NC1CCCCCC1 (stereo unspecified) | inconclusive: 18.5 µM [inhibitor, single point]

Compound | Potency
CCCCN(C(=O)CCCc1nc2ccccc2s1)c1c(N)n(CC(C)C)c(=O)[nH]c1=O | inconclusive: 9.28 µM [inhibitor, single point]
O=C(NCCNC(=O)c1ccccc1Br)c1cccnc1 | inconclusive: 11.7 µM [inhibitor, single point]
O=C1CCN(CCc2ccccc2)CCN1[C@H](COc1ccccc1)c1ccccc1 | inconclusive: 11.7 µM [inhibitor, single point]
O=C(COC(=O)/C=C/c1ccc2ccccc2n1)NNC(=O)c1ccc([N+](=O)[O-])cc1 | inconclusive: 3.7 µM [inhibitor, single point]
N#Cc1c(N)n(-c2ccccc2)c(=O)c2cc([N+](=O)[O-])ccc12 | inconclusive: 7.38 µM [inhibitor, partial curve]
CC(C)CNC(=O)c1ccc(C2SCC(=O)N2Cc2ccccc2)cc1 (stereo unspecified) | inconclusive: 18.5 µM [inhibitor, single point]
Cc1ccc(CC(=O)Nc2ccncc2)cc1 | inconclusive: 4.15 µM [inhibitor, partial curve]
Cc1n[nH]c(=O)nc1N/N=C/c1ccc(O)c([N+](=O)[O-])c1 | inactive
COc1ccc(Cn2ccnc2SCC(=O)Nc2cccc(NC(C)=O)c2)cc1 | inconclusive: 2.08 µM [inhibitor, full curve, poor fit]
CCOC(=O)c1c(NC(C)=O)sc2c(O)c(Br)ccc12 | inconclusive: 10.4 µM [inhibitor, single point]
CC(NC(=O)c1ccco1)c1ccc2c(c1)OCO2 (stereo unspecified) | inactive
COc1ccc(Nc2nc3c([nH]2)c(=O)[nH]c(=O)n3C)cc1 | active: 13.1 µM
Cc1nc([N+](=O)[O-])c(Br)n1CC(=O)c1cccc([N+](=O)[O-])c1 | inconclusive: 18.5 µM [inhibitor, single point]
COCCCNc1ncnc2c1sc1nc(-c3ccco3)c3c(c12)CC(C)(C)OC3 | inconclusive: 16.5 µM [inhibitor, single point]
CSc1nsc(/C=C/Nc2ccc(C)c(C)c2)c1C#N | inconclusive: 0.522 µM [inhibitor, full curve]
CC(NC(=S)Nc1cccc(F)c1)C(c1cccs1)N1CCOCC1 (stereo unspecified) | inconclusive: 18.5 µM [inhibitor, single point]
O=C(CS(=O)(=O)c1ccc(F)cc1)NCCS(=O)(=O)c1ccccc1 | inactive
Cc1nc2scc(C)n2c(=O)c1S(=O)(=O)NCC1CCN(Cc2ccc(Cl)cc2)CC1 | inconclusive: 1.85 µM [inhibitor, full curve]
CCCCCc1ccc(S(=O)(=O)Nc2cc(C)ccn2)cc1 | inactive
Cc1cc2cc(C)c3nnc(SCC(=O)Nc4ccc(S(=O)(=O)N5CCCCC5)cc4)n3c2cc1C | inconclusive: 5.22 µM [inhibitor, partial curve]
N#CC1(NC(=O)CN2CCN(S(=O)(=O)c3ccccc3F)CC2)CCCC1 | inactive
COc1cc(/C=C/CN2CCC(Oc3ccc(C(=O)N4CCCC4)cc3)CC2)ccc1O | inconclusive: 7.38 µM [inhibitor, single point]
COC(=O)c1c(SCC(=O)Nc2ccc(C)cc2)nc(=O)[nH]c1C | inactive
CCC(CC)C(=O)Nc1ccc(C(=O)Nc2cc(C)on2)cc1 | inactive

Compound | Potency
CC(=O)c1c(N2CCN(c3ccc(F)cc3)CC2)nc(=S)n(Cc2ccccc2)c1C | inactive
O=C(COC(=O)CC(c1ccccc1)c1ccccc1)NCc1ccc(Cl)cc1 | inconclusive: 10.4 µM [inhibitor, single point]
Cc1ccc(C)c(N2CCN(CCCNC(=O)CCC(=O)N3CCOc4ccc(Cl)cc43)CC2)c1 | inactive
O=C(OC(c1ccccc1)c1nccc2ccccc12)c1cc([N+](=O)[O-])cc([N+](=O)[O-])c1 (stereo unspecified) | active: 10.4 µM
O=CN1CCN(C(=O)c2ccc(-c3nc4ccccc4s3)s2)CC1 | inactive
O=C(N/N=C/c1ccc(OC(=O)c2cccc(Br)c2)cc1)c1cccnc1 | inactive
Cc1cc(S(=O)(=O)/N=C(\N)c2ccc(C(N)=O)cc2)cc(C)c1F | inactive
COc1ccc(C[C@H]2CN3C(=NC[C@@H]3C(C)C)N2CCNC(=O)c2ccc(C)c(Br)c2)cc1 | active: 2.08 µM
COC(=O)c1ccc(NC(=O)c2cc(-c3ccncc3)nc3ccccc23)cc1 | inconclusive: 18.5 µM [inhibitor, single point]
O=C(CNC(=O)c1cccs1)OCc1c(F)cccc1Cl | inactive
O=C(Nc1ccccc1Cl)c1ccccc1Cc1ccccc1 | inactive
CC(C)CCn1c(CN(C)Cc2ccccc2)nc2c1c(=O)n(C)c(=O)n2C | inconclusive: 18.5 µM [inhibitor, single point]
CC(=O)Oc1ccc(C)cc1 | inactive
O=C(CCCc1ccccc1)N1CCc2ccccc21 | inconclusive: 9.28 µM [inhibitor, partial curve, poor fit]
O=C(CCCOc1ccc(Cl)cc1Cl)N1CCc2ccccc2C1 | inconclusive: 8.28 µM [inhibitor, single point]
O=C(CCCOc1ccc(Cl)cc1Cl)NCCCO | inconclusive: 0.131 µM [inhibitor, full curve, poor fit]
Cc1ccccc1C(=O)N1CCc2cc(-c3csc(NC(=O)CN4CCCC4)n3)ccc21 | inactive
CCC(=O)N1CCc2cc(S(=O)(=O)NC(Cc3ccccc3)C(=O)NC3CCCC3)ccc21 (stereo unspecified) | inconclusive: 2.94 µM [inhibitor, single point]
C/C(=N\NC(=O)c1ccc(O)cc1)c1ccc2c(c1)Nc1ccccc1S2 | inconclusive: 0.522 µM [inhibitor, partial curve, poor fit]
O=C1CC(C(=O)N2CCC3(CC2)OCCO3)CN1CCc1ccccc1 (stereo unspecified) | inconclusive: 2.62 µM [inhibitor, single point]
CCN(CC)C(=O)Cn1c(=O)n(-c2ccc(CC(=O)NCc3ccccc3)cc2)c(=O)c2sccc21 | inconclusive: 11.7 µM [inhibitor, partial curve, poor fit]
Cc1ccc(Cl)cc1OCC(=O)NCCOC(=O)Nc1sc(=S)n(C)c1C | inactive
CCCNC(=O)c1ccc(N2CCC3(CC2)CC(c2ccccc2)=NO3)c(NC(=O)c2ccco2)c1 | active: 1.17 µM
